Measurements from article doi:10.1101/2021.07.07.451439.
These are yes or no findings as the source states them, for the method shown. Binding seen in cells or lysates may run through a third protein. Some entries that bind do so weakly or less than the wild type.

Sequences of proteins named here, by UniProt entry; tags and fusion partners are left off.
UniProt P51784: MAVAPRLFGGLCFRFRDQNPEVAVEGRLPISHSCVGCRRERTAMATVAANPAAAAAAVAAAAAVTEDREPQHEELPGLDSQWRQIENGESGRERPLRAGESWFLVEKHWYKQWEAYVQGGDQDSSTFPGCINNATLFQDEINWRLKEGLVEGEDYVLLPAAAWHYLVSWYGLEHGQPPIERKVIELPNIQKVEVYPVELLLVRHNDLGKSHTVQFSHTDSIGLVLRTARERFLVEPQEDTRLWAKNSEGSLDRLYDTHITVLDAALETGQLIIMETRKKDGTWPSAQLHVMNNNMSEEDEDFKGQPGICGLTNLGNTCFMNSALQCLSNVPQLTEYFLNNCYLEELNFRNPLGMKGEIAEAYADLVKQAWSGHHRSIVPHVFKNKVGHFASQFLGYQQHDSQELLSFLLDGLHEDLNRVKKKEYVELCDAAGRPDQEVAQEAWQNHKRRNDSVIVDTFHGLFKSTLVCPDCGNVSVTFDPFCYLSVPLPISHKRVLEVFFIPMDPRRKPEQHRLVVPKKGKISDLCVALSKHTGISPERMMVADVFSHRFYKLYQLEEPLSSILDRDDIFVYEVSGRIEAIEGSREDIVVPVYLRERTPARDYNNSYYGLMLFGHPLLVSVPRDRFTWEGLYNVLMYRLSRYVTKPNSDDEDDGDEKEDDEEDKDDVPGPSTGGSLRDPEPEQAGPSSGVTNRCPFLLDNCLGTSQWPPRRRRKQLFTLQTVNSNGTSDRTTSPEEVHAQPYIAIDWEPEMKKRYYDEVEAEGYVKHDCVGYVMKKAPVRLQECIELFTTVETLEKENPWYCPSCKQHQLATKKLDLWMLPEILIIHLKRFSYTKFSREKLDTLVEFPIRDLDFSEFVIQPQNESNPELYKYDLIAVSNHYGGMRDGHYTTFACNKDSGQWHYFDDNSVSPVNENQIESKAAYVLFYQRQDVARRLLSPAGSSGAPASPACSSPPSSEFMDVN
UniProt Q96EI5: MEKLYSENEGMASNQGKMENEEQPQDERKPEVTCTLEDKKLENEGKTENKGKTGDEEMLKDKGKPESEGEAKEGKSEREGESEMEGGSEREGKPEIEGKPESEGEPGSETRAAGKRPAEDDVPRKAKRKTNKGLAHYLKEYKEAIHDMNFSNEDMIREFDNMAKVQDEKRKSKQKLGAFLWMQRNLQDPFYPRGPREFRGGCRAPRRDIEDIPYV
UniProt Q15170: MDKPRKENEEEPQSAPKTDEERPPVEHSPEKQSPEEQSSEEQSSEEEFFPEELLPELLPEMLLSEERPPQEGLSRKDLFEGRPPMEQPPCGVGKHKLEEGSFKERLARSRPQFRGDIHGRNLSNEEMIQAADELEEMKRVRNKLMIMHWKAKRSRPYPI

Legend:
[1] = biological target: USP11 (endogenous) (human (endogenous in U2OS and HCT116)) (UniProt P51784); test: co-IP
[2] = biological target: GFP-TCEAL4 WT isoform-1 (human) (UniProt Q96EI5); test: co-IP

binding [1]: binds
binding [2]: binds
Substance: TCEAL1 (endogenous) (from UniProt Q15170 1-159)
